Measured data: PubChem BioAssay AID504793 (Drosophila RNAi Screening Center, 2011)
Screen: 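Knock-downs allowing continued mitosis even though DNA is damaged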 (primary screen). Cell system: Drosophila S2R+ cells. Reagents: long dsRNA against Drosophila genes, about 0.25 µg dsRNA per well. Time to read-out: 4 days of dsRNA, then 4 hours of drug before read-out. Conditions: doxorubicin 0.5 µM for 4 hours to cause double-strand breaks, in cells also given a low, harmless dose of dsRNA against nbs to sensitise the assay. Read-out: 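Per-well count of mitotic cells stained for phospho-histone H3 after doxorubicin exposure, used as mitotic index; counts are raw and not normalised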. Direction: mitotic cells: higher = more cells in mitosis, weaker G2 arrest. Rule for the call: 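a call needs confirmation in secondary tests, with other dsRNAs and a check of mitotic timing without damage, not just a high primary count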. Meaning of the calls: active = confirmed in follow-up tests; inactive = not confirmed.
The deposit covers about 23,000 reagents; below is an unselected part of those with a known target gene and a result. In the full data, 62 (0.27%) are marked active. 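Calls come from follow-up tests whose scores are not deposited, so confirmed genes may have low counts here; counts are not normalised per plate.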 The raw values are shown without normalisation. Names joined by + are all predicted targets of the reagent. Reagent sequences are not shown.

gene	amplicon	mitotic cells, replicate 1	mitotic cells, replicate 2	outcome
CG2519	DRSC12312	9		inactive
lncRNA:noe (long non-coding RNA:noe)	DRSC22747	15		inactive
lncRNA:noe (long non-coding RNA:noe)	DRSC24139	3		inactive
HemK1 (HemK methyltransferase 1)	DRSC03253	9		inactive
Rat1 (Rat1 5'-3' exoribonuclease)	DRSC02044	5		inactive
CG4239	DRSC19885	7		inactive
CG12935	DRSC06248	6		inactive
CG6739	DRSC02987	5		inactive
Zpr1	DRSC18432	2		inactive
Ssrp (Structure specific recognition protein)	DRSC04658	3		inactive
Ssrp (Structure specific recognition protein)	DRSC29959			inactive
PsGEF (retired record)	DRSC18600	7		inactive
CG13390	DRSC02261	8		inactive
CG13390	DRSC24783	4		inactive
eIF4EHP	DRSC13653	9		inactive
eIF4EHP	DRSC14265	12		inactive
CG13024	DRSC09904	5		inactive
CG13024	DRSC29921	2		inactive
CG13051	DRSC09932	7		inactive
exp (expansion)	DRSC06313	8		inactive
exp (expansion)	DRSC25004	3		inactive
Hr83 (Hormone receptor 83)	DRSC12521	2		inactive
Hr83 (Hormone receptor 83)	DRSC25662	5		inactive
CG2258	DRSC18222	7		inactive
CG2258	DRSC28795	3		inactive
daed + CG34174	DRSC27640	7		inactive
Tcs5 (Threonyl-carbamoyl synthesis 5)	DRSC09774	6		inactive
D (Dichaete)	DRSC11132	11		inactive
D (Dichaete)	DRSC25367	4		inactive
CG7300	DRSC03044	6		inactive
CG7300	DRSC28239			inactive
sws (swiss cheese)	DRSC18843	8	9	inactive
bug (bunker gear)	DRSC07137	7		inactive
CG18558	DRSC21593	13		inactive
Ir51b (Ionotropic receptor 51b)	DRSC05540	9		inactive
Fibp	DRSC11031	7		inactive
Fibp	DRSC26529	11		inactive
mRpS18C (mitochondrial ribosomal protein S18C)	DRSC16538	12		inactive
mRpS18C (mitochondrial ribosomal protein S18C)	DRSC27054	6		inactive
elB (elbow B)	DRSC01379	2		inactive
elB (elbow B)	DRSC25039	8		inactive
IscU (Iron-sulfur cluster assembly enzyme)	DRSC16572	12		inactive
CG13999	DRSC02331	10		inactive
CG13999	DRSC29521	4		inactive
CG14667	DRSC12253	9		inactive
CG14667	DRSC28216	3		inactive
Cyp4e2 (Cytochrome P450 4e2)	DRSC07371	9		inactive
CG3163	DRSC04341	6		inactive
CG3163	DRSC28242	8		inactive
Hsp70Aa + Hsp70Ab	DRSC21246	7		inactive
Hsp70Aa + Hsp70Ab	DRSC29327	3		inactive
obst-H (obstructor-H)	DRSC10935	7		inactive
obst-H (obstructor-H)	DRSC10940	6		inactive
dsb (debris buster)	DRSC08542	10		inactive
Klp98A (Kinesin-like protein at 98A)	DRSC16724	16		inactive
Klp98A (Kinesin-like protein at 98A)	DRSC21834	23		inactive
CG8252	DRSC07126	9		inactive
CG8252	DRSC29694	9		inactive
CG10031	DRSC00286	5		inactive
Sec3 (Secretory 3)	DRSC10384	5		inactive
Shab (Shaker cognate b)	DRSC08013	8		inactive
Shab (Shaker cognate b)	DRSC08643	6		inactive
Shab (Shaker cognate b)	DRSC08699	8		inactive
Shab (Shaker cognate b)	DRSC28359	6		inactive
Cirl (Calcium-independent receptor for alpha-latrotoxin)	DRSC23235	10		inactive
Cirl (Calcium-independent receptor for alpha-latrotoxin)	DRSC28280	11		inactive
Ir60b (Ionotropic receptor 60b)	DRSC04217	6		inactive
I-3 (Inhibitor-3)	DRSC20479	5		inactive

Part of the list above in another layout.
Zpr1 [DRSC18432] → mitotic cells, replicate 1 = 2; outcome = inactive
Ssrp (Structure specific recognition protein) [DRSC04658] → mitotic cells, replicate 1 = 3; outcome = inactive
Ssrp (Structure specific recognition protein) [DRSC29959] → outcome = inactive
PsGEF (retired record) [DRSC18600] → mitotic cells, replicate 1 = 7; outcome = inactive
CG13390 [DRSC02261] → mitotic cells, replicate 1 = 8; outcome = inactive
CG13390 [DRSC24783] → mitotic cells, replicate 1 = 4; outcome = inactive
eIF4EHP [DRSC13653] → mitotic cells, replicate 1 = 9; outcome = inactive
eIF4EHP [DRSC14265] → mitotic cells, replicate 1 = 12; outcome = inactive
CG13024 [DRSC09904] → mitotic cells, replicate 1 = 5; outcome = inactive
CG13024 [DRSC29921] → mitotic cells, replicate 1 = 2; outcome = inactive
CG13051 [DRSC09932] → mitotic cells, replicate 1 = 7; outcome = inactive
exp (expansion) [DRSC06313] → mitotic cells, replicate 1 = 8; outcome = inactive
exp (expansion) [DRSC25004] → mitotic cells, replicate 1 = 3; outcome = inactive
Hr83 (Hormone receptor 83) [DRSC12521] → mitotic cells, replicate 1 = 2; outcome = inactive
Hr83 (Hormone receptor 83) [DRSC25662] → mitotic cells, replicate 1 = 5; outcome = inactive
CG2258 [DRSC18222] → mitotic cells, replicate 1 = 7; outcome = inactive

Further reagents follow:
gene	amplicon	mitotic cells, replicate 1	mitotic cells, replicate 2	outcome
CG2861	DRSC18229	8		inactive
Prosap	DRSC06382	1		inactive
Prosap	DRSC07081	11		inactive
ss (spineless)	DRSC17069	6		inactive
dac (dachshund)	DRSC03518	5		inactive
Eig71Ec (Ecdysone-induced gene 71Ec)	DRSC11150	3		inactive
Spn43Ad (Serpin 43Ad)	DRSC06770	7		inactive
CalpA (Calpain-A)	DRSC07352	10		inactive
MED20 (Mediator complex subunit 20)	DRSC03463	6		inactive
St1 (Sulfotransferase 1)	DRSC04504	13		inactive
St1 (Sulfotransferase 1)	DRSC25543	7		inactive
GABA-B-R3 (metabotropic GABA-B receptor subtype 3)	DRSC00561	4		inactive
GABA-B-R3 (metabotropic GABA-B receptor subtype 3)	DRSC29404	4		inactive
Cdc50 (Cell division cycle 50)	DRSC20224	15		inactive
CG6023	DRSC19970	10		inactive
AkhR (Adipokinetic hormone receptor)	DRSC03329	3		inactive
AkhR (Adipokinetic hormone receptor)	DRSC28694	3		inactive
l(2)37Cb (lethal (2) 37Cb)	DRSC02095	5		inactive
l(2)37Cb (lethal (2) 37Cb)	DRSC24383	5		inactive
DCP2 (Decapping protein 2)	DRSC10597	4		inactive
Tsen34 + Trl	DRSC10014	13		inactive
Rh50	DRSC08692	1		inactive
mRpL2 (mitochondrial ribosomal protein L2)	DRSC10896	6		inactive
jhamt (juvenile hormone acid methyltransferase)	DRSC01985	5		inactive
CG15563	DRSC15101	8		inactive
CG15563	DRSC27442	6		inactive
CR42532 (pseudo)	DRSC06713	6		inactive
Rsph9 (Radial spoke head protein 9)	DRSC01594	6		inactive
Rsph9 (Radial spoke head protein 9)	DRSC25908	5		inactive
CG9997	DRSC16591	13		inactive
CG9997	DRSC29613	5		inactive
TrpA1 (Transient receptor potential cation channel A1)	DRSC10544	1		inactive
CG12213	DRSC14478	19		inactive
CG12213	DRSC22109	13		inactive
CG12213	DRSC25474	5		inactive
CG34324	DRSC23241	12		inactive
Uros1 (Uroporphyrinogen III synthase 1)	DRSC18191	5		inactive
Uros1 (Uroporphyrinogen III synthase 1)	DRSC29316	5		inactive
barr (barren)	DRSC03488	24		inactive
eIF4H2 (eukaryotic translation initiation factor 4H2)	DRSC14582	9		inactive
eIF4H2 (eukaryotic translation initiation factor 4H2)	DRSC27363	4		inactive
Drl-2 (Derailed 2)	DRSC05393	7		inactive
Drl-2 (Derailed 2)	DRSC06155	6		inactive
Drl-2 (Derailed 2)	DRSC06858	7		inactive
